Consider 18 molecules from PubChem BioAssay AID256 (DTP/NCI, 2004).

In this experiment the test system is CD2F1 mice, L1210 leukemia ip, survival T/C. The experiment is described as follows: NCI In Vivo Anticancer Drug Screen. Data for tumor model L1210 Leukemia (intraperitoneal) in CD2F1 (CDF1) mice. Conditions: higher T/C = longer survival. In outline:
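Implant tumor; dose compound or vehicle; measure endpoint in both groups; report treated divided by control.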

Setting [1] is: T/C endpoint: mean survival time, dose: 1.0 mg/kg/injection, schedule: Q01DX009 (ip), vehicle: water.
Setting [2] is: T/C endpoint: mean survival time, dose: 200.0 mg/kg/injection, schedule: Q01DX009 (ip), vehicle: suspension in saline.
Setting [3] is: T/C endpoint: mean survival time, dose: 200.0 mg/kg/injection, schedule: Q01DX009 (ip), vehicle: Klucel (hydroxypropylcellulose) (HPC).
[4] abbreviates: T/C endpoint: mean survival time, dose: 400.0 mg/kg/injection, schedule: Q04DX003 (ip), vehicle: saline.

The list does not hold the whole screen: it gathers tests that were run many times, whatever their T/C, doses with no T/C, and many T/C values between a quarter and a half above the control. Further doses and runs are listed elsewhere. T/C is the treated group as % of the vehicle group. Some doses have a count of surviving animals in place of a T/C: the source holds a T/C of zero for them, seemingly a mark for toxic or unscored doses. Some survivor counts are full or nearly so, which does not show that the dose was tolerated: survival well below the control is almost never listed, so the zero probably covers shortened survival too. Survivors were counted at the toxicity check, usually on the fifth day, unless a day is given; later deaths do not show. Schedules are NCI's codes, taken here to give the interval after Q, in days (D) or hours (H), and the number of doses after X. Where survival is the endpoint, this PubChem deposit counts one and a half times the control or more as active, and values a quarter to a half above the control carry no call in these data; other NCI protocols may use other cut-offs. Some T/C values are followed by the survivors on the day toxicity was checked, most often the fifth; where none is given, no animal had died by that day. Some entries were tested several times; the results are listed from low to high. Signs of the kind (2×) stand for listed records that agree.

For the molecule `COc1cc2c(c(OC)c1OC)-c1ccc(OC)c(=O)cc1[C@@H](NC(C)=O)CC2`, the T/C was 126 % of control (T/C endpoint: mean survival time, dose: 0.06 mg/kg/injection, schedule: Q01DX005 (ip), vehicle: water); 100, 101 (2×), 104, 111 % of control (T/C endpoint: mean survival time, dose: 0.06 mg/kg/injection, schedule: Q01DX009 (ip), vehicle: water); 101 (2×), 103, 107, 111 % of control (T/C endpoint: mean survival time, dose: 0.13 mg/kg/injection, schedule: Q01DX009 (ip), vehicle: water); 95, 113, 114, 117, 123 % of control (T/C endpoint: mean survival time, dose: 0.25 mg/kg/injection, schedule: Q01DX009 (ip), vehicle: water); 129 % of control (T/C endpoint: mean survival time, dose: 0.32 mg/kg/injection, schedule: Q01DX009 (ip), vehicle: saline); 101 (2×), 113, 115, 138 % of control (T/C endpoint: mean survival time, dose: 0.5 mg/kg/injection, schedule: Q01DX009 (ip), vehicle: water). In addition, the T/C (T/C endpoint: mean survival time, dose: 0.64 mg/kg/injection, schedule: Q01DX009 (ip), vehicle: saline) was 149 % of control; the T/C (T/C endpoint: mean survival time, dose: 1.0 mg/kg/injection, schedule: Q01DX005 (ip), vehicle: Klucel (hydroxypropylcellulose) (HPC)) is 126 % of control; the T/C under setting [1] is 89, 97 [4 of 6 alive], 111 % of control; the T/C (T/C endpoint: median survival time, dose: 0.5 mg/kg/injection, schedule: Q01DX005 (ip), vehicle: saline) is 133 % of control. Moreover, the survivor count (T/C endpoint: mean survival time, dose: 0.5 mg/kg/injection, schedule: Q01DX005 (ip), vehicle: water) was 1 of 6; the survivor count (T/C endpoint: mean survival time, dose: 1.0 mg/kg/injection, schedule: Q01DX005 (ip), vehicle: water) is 0 of 6; the survivor count under setting [1] was 5 of 6; the survivor count (T/C endpoint: mean survival time, dose: 1.5 mg/kg/injection, schedule: Q01DX009 (ip), vehicle: saline) is listed as 3 of 6; the survivor count (T/C endpoint: mean survival time, dose: 2.0 mg/kg/injection, schedule: Q01DX005 (ip), vehicle: Klucel (hydroxypropylcellulose) (HPC)) was 0 of 6; the survivor count (T/C endpoint: mean survival time, dose: 3.0 mg/kg/injection, schedule: Q01DX009 (ip), vehicle: saline) was 0 of 6. Besides, the survivor count (T/C endpoint: mean survival time, dose: 6.0 mg/kg/injection, schedule: Q01DX009 (ip), vehicle: saline) is given as 0 of 6; the survivor count (T/C endpoint: mean survival time, dose: 12.0 mg/kg/injection, schedule: Q01DX009 (ip), vehicle: saline) is given as 0 of 6; the survivor count (T/C endpoint: mean survival time, dose: 12.5 mg/kg/injection, schedule: Q01DX009 (ip), vehicle: saline) is given as 0 of 6; the survivor count (T/C endpoint: mean survival time, dose: 12.5 mg/kg/injection, schedule: Q01DX009 (ip), vehicle: suspension in saline) was 0 of 6; the survivor count (T/C endpoint: mean survival time, dose: 25.0 mg/kg/injection, schedule: Q01DX009 (ip), vehicle: saline) was 0 of 6; the survivor count (T/C endpoint: mean survival time, dose: 25.0 mg/kg/injection, schedule: Q01DX009 (ip), vehicle: suspension in saline) is 0 of 6. The survivor count is 0 of 6 (T/C endpoint: mean survival time, dose: 50.0 mg/kg/injection, schedule: Q01DX009 (ip), vehicle: saline); 0 of 6 (T/C endpoint: mean survival time, dose: 50.0 mg/kg/injection, schedule: Q01DX009 (ip), vehicle: suspension in saline); 0 of 6 (T/C endpoint: mean survival time, dose: 100.0 mg/kg/injection, schedule: Q01DX009 (ip), vehicle: saline); 0 of 6 (T/C endpoint: mean survival time, dose: 100.0 mg/kg/injection, schedule: Q01DX009 (ip), vehicle: suspension in saline); 0 of 6 (T/C endpoint: mean survival time, dose: 200.0 mg/kg/injection, schedule: Q01DX009 (ip), vehicle: saline); 0 of 6 under setting [2]. The survivor count runs as follows: (T/C endpoint: mean survival time, dose: 400.0 mg/kg/injection, schedule: Q01DX009 (ip), vehicle: saline) 0 of 6; (T/C endpoint: mean survival time, dose: 400.0 mg/kg/injection, schedule: Q01DX009 (ip), vehicle: suspension in saline) 0 of 6.

Regarding `CC(=O)Oc1ccc(N2C(=O)C=CC2=O)cc1`, the survivor count is listed as 0 of 6 (T/C endpoint: mean survival time, dose: 25.0 mg/kg/injection, schedule: Q04DX003 (ip), vehicle: Klucel (hydroxypropylcellulose) (HPC)) and 0 of 6 (T/C endpoint: mean survival time, dose: 50.0 mg/kg/injection, schedule: Q04DX003 (ip), vehicle: Klucel (hydroxypropylcellulose) (HPC)).

With `CS(=O)(=O)OCCN(CCOS(C)(=O)=O)c1ccc(N=Nc2ccccc2C(=O)O)cc1`, the T/C was 125 % of control (T/C endpoint: mean survival time, dose: 1.56 mg/kg/injection, schedule: Q01DX009 (ip), vehicle: Klucel (hydroxypropylcellulose) (HPC)); 131 % of control (T/C endpoint: mean survival time, dose: 3.12 mg/kg/injection, schedule: Q01DX009 (ip), vehicle: Klucel (hydroxypropylcellulose) (HPC)); 127 and 144 % of control (T/C endpoint: mean survival time, dose: 6.25 mg/kg/injection, schedule: Q01DX009 (ip), vehicle: Klucel (hydroxypropylcellulose) (HPC)). In addition, the survivor count reads like this: (T/C endpoint: mean survival time, dose: 25.0 mg/kg/injection, schedule: Q01DX009 (ip), vehicle: Klucel (hydroxypropylcellulose) (HPC)) 6 of 6; (T/C endpoint: mean survival time, dose: 50.0 mg/kg/injection, schedule: Q01DX009 (ip), vehicle: Klucel (hydroxypropylcellulose) (HPC)) 2 of 3; (T/C endpoint: mean survival time, dose: 100.0 mg/kg/injection, schedule: Q01DX009 (ip), vehicle: Klucel (hydroxypropylcellulose) (HPC)) 0 of 3; under setting [3], 0 of 3.

With `CN1C(C(=O)O)CCC1C(=O)O` (stereo unspecified), the survivor count under setting [4] is recorded as 1 of 6.

For `Cc1ccccc1-c1nc2c([nH]1)c(=O)n(C)c(=O)n2C`, under “T/C endpoint: mean survival time, dose: 100.0 mg/kg/injection, schedule: Q01DX005 (ip), vehicle: distilled water + Tween-80”, the survivor count is 5 of 6.

As for `CCOC(=O)C(C(=O)OCC)c1cc(NC(=O)c2ccccc2)ccc1NC(=O)c1ccccc1`, for the setting “T/C endpoint: mean survival time, dose: 200.0 mg/kg/injection, schedule: Q01DX009 (ip), vehicle: saline with Tween-80”, the survivor count is on record as 6 of 6.

`CSc1ncnc2c1cnn2C1OC(CO)C(O)C1O` (stereo unspecified): the survivor count (T/C endpoint: mean survival time, dose: 400.0 mg/kg/injection, schedule: Q01DX005 (ip), vehicle: other) is given as 2 of 5.

For `CC(C)(C)N.[O]=[Cr](=[O])([OH])[OH]`, the survivor count (T/C endpoint: mean survival time, dose: 80.0 mg/kg/injection, schedule: Q01DX001 (ip), vehicle: saline) is 2 of 6.

`CCOC(=O)c1[nH]c(=S)[nH]c1C(=O)OCC`: the survivor count is listed as 0 of 6 (T/C endpoint: mean survival time, dose: 200.0 mg/kg/injection, schedule: Q01DX001 (ip), vehicle: saline) and 0 of 6 (T/C endpoint: mean survival time, dose: 400.0 mg/kg/injection, schedule: Q01DX001 (ip), vehicle: saline).

Regarding `Cc1ccc(C(C)(C)C[P+](C)(c2ccccc2)c2ccccc2)cc1`, the survivor count is 3 of 6 under setting [3] and 6 of 6 (T/C endpoint: mean survival time, dose: 400.0 mg/kg/injection, schedule: Q01DX009 (ip), vehicle: Klucel (hydroxypropylcellulose) (HPC)).

With `O=C1/C(=C\c2ccccc2)C2OCC=C3CN4CCC56c7ccccc7N1C5C2C3CC46` (stereo unspecified), the survivor count (T/C endpoint: mean survival time, dose: 150.0 mg/kg/injection, schedule: Q01DX001 (ip), vehicle: other) is reported as 0 of 6 and the survivor count (T/C endpoint: mean survival time, dose: 300.0 mg/kg/injection, schedule: Q01DX001 (ip), vehicle: other) was 0 of 6.

Consider `O=[As](O)(O)CC(Br)CBr` (stereo unspecified), for which, where the note is “T/C endpoint: mean survival time, dose: 400.0 mg/kg/injection, schedule: Q01DX009 (ip), vehicle: saline with Tween-80”, the survivor count is recorded as 2 of 6.

Consider `CCN(CC)CCCNc1cc(OC)cc2nc3cc(Cl)ccc3nc12`, for which the survivor count under setting [2] is on record as 0 of 6.

Regarding `CC(C)c1ccc(C(=O)O)cc1S(=O)(=O)Cl`, the survivor count was 0 of 6 (T/C endpoint: mean survival time, dose: 200.0 mg/kg/injection, schedule: Q04DX003 (ip), vehicle: saline) and 1 of 6 under setting [4].

On to `CC1(C)N=C(N)N=C(N)N1c1ccc(OCc2ccc(C(=O)Nc3cccc(S(=O)(=O)F)c3)cc2)c(Cl)c1`, for which the T/C was 146 % of control (T/C endpoint: mean survival time, dose: 50.0 mg/kg/injection, schedule: Q04DX003 (ip), vehicle: saline) and 142 % of control (T/C endpoint: mean survival time, dose: 100.0 mg/kg/injection, schedule: Q04DX003 (ip), vehicle: saline). Moreover, the survivor count under setting [4] was 6 of 6.

With `N#C/C(C(=S)S)=C(/O)c1ccccc1`, the survivor count is listed as 1 of 6 (T/C endpoint: mean survival time, dose: 200.0 mg/kg/injection, schedule: Q04DX003 (ip), vehicle: saline with Tween-80) and 0 of 6 (T/C endpoint: mean survival time, dose: 400.0 mg/kg/injection, schedule: Q04DX003 (ip), vehicle: saline with Tween-80).

As to `O=C1CC(=O)C(CCc2cccc3ccccc23)C1=O` (stereo unspecified), the survivor count (T/C endpoint: mean survival time, dose: 400.0 mg/kg/injection, schedule: Q04DX002 (ip), vehicle: saline with Tween-80) was 1 of 3.

In the case of `Nc1ccn(C2CC(CO)C(O)C2O)c(=O)n1` (stereo unspecified), under “T/C endpoint: mean survival time, dose: 67.0 mg/kg/injection, schedule: Q01DX009 (ip), vehicle: saline”, the T/C is 140 % of control.
